Data as given in PubChem BioAssay AID1259254 (NCATS, 2017)
In all, the deposit lists about 59,000 reagents; below is a part drawn at random. Over the whole deposit, about 1,550 (2.6%) got an active call. 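G2 share is only a proxy for re-replication; each gene was hit by three separate siRNAs, and active genes were retested.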 Reagents against one gene are numbered here. Not all columns of the deposit are shown. Not given: the amount of reagent.

Purpose: 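Finding genes that stop cells copying their DNA twice in one cycle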 (primary screen)
Cell system: human HCT116 colorectal cancer cells
Reagents: single siRNA against human genes
Time to read-out: 3 days
Read-out: 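Imaged Hoechst DNA stain sorts each cell into a cycle phase by DNA amount; per plate, G2 fraction set to 0% for non-targeting and 100% for GMNN siRNA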
Direction: G2 robust z-score and G2 cells, % of GMNN control: higher = more G2 cells, more excess DNA replication
Hit rule: 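Active siRNAs have a G2 robust z of 5 or more median absolute deviations over the median, which in these data means about 38% or higher of GMNN control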

For GJA9 #1, what does the deposit list?
G2 robust z-score: 0.737; G2 cells, % of GMNN control: 8.15; Outcome: inactive

For GJA9 #2, what was measured?
G2 robust z-score: -1.03; G2 cells, % of GMNN control: -4.28; Outcome: inactive

Which result is listed for GJA9 #3?
G2 robust z-score: -0.0539; G2 cells, % of GMNN control: 2.59; Outcome: inactive

What did the screen give for H4C5 #1?
G2 robust z-score: -0.424; G2 cells, % of GMNN control: -0.0131; Outcome: inactive

With H4C5 #2, what does the deposit list?
G2 robust z-score: -0.192; G2 cells, % of GMNN control: 1.62; Outcome: inactive

What is on record for H4C5 #3?
G2 robust z-score: -0.219; G2 cells, % of GMNN control: 1.43; Outcome: inactive

For SC5D #1, what does the deposit list?
G2 robust z-score: -0.0976; G2 cells, % of GMNN control: 2.28; Outcome: inactive

What did the screen give for SC5D #2?
G2 robust z-score: -0.673; G2 cells, % of GMNN control: -1.77; Outcome: inactive

For SC5D #3, what was measured?
G2 robust z-score: 0.372; G2 cells, % of GMNN control: 5.58; Outcome: inactive

What did the screen give for CDC50CP #1?
G2 robust z-score: 0.442; G2 cells, % of GMNN control: 6.07; Outcome: inactive

What did the screen give for CDC50CP #2?
G2 robust z-score: 1.87; G2 cells, % of GMNN control: 16.1; Outcome: inactive

With CDC50CP #3, what does the deposit list?
G2 robust z-score: 3.27; G2 cells, % of GMNN control: 26; Outcome: inactive

What did the screen give for CCT4 #1?
G2 robust z-score: 1.72; G2 cells, % of GMNN control: 15; Outcome: inactive

Which result is listed for CCT4 #2?
G2 robust z-score: 3.22; G2 cells, % of GMNN control: 25.6; Outcome: inactive

With CCT4 #3, how do the results read?
G2 robust z-score: 0.769; G2 cells, % of GMNN control: 8.38; Outcome: inactive

What did the screen give for CCDC71L #1?
G2 robust z-score: -0.835; G2 cells, % of GMNN control: -2.9; Outcome: inactive

With CCDC71L #2, what was measured?
G2 robust z-score: 0.286; G2 cells, % of GMNN control: 4.98; Outcome: inactive

For CCDC71L #3, what does the deposit list?
G2 robust z-score: -0.313; G2 cells, % of GMNN control: 0.765; Outcome: inactive

What is on record for GABRR2 #1?
G2 robust z-score: 5.19; G2 cells, % of GMNN control: 39.5; Outcome: active

How did the screen score GABRR2 #2?
G2 robust z-score: -0.71; G2 cells, % of GMNN control: -2.03; Outcome: inactive

For GABRR2 #3, how do the results read?
G2 robust z-score: -0.579; G2 cells, % of GMNN control: -1.1; Outcome: inactive

What is on record for LTO1 #1?
G2 robust z-score: -0.318; G2 cells, % of GMNN control: 0.732; Outcome: inactive

For LTO1 #2, what does the deposit list?
G2 robust z-score: -0.263; G2 cells, % of GMNN control: 1.11; Outcome: inactive

Which result is listed for LTO1 #3?
G2 robust z-score: 3.64; G2 cells, % of GMNN control: 28.6; Outcome: inactive

Entries listed so far whose target name starts with G or g:
GJA9 #1 | G2 robust z-score = 0.737; G2 cells, % of GMNN control = 8.15; Outcome = inactive
GJA9 #2 | G2 robust z-score = -1.03; G2 cells, % of GMNN control = -4.28; Outcome = inactive
GJA9 #3 | G2 robust z-score = -0.0539; G2 cells, % of GMNN control = 2.59; Outcome = inactive
GABRR2 #1 | G2 robust z-score = 5.19; G2 cells, % of GMNN control = 39.5; Outcome = active
GABRR2 #2 | G2 robust z-score = -0.71; G2 cells, % of GMNN control = -2.03; Outcome = inactive
GABRR2 #3 | G2 robust z-score = -0.579; G2 cells, % of GMNN control = -1.1; Outcome = inactive
